Experimental findings from patent publication US20210340272A1 are described below.

No constants are given. Whether binding was seen depends on the method and setting. Binding calls can cover weak binding; strength is not graded here.

The assay addresses Mouse SA (mouse). Put plainly: Octet RED96 biolayer interferometry; antibody loaded on AHC biosensor, dipped into mouse serum albumin at 200 nM.

B1: AWT-P494 (humanized P367) anti-HSA antibody (VHH)
VHH: EVQLVESGGGLVQPGGSLRLSCAASGSTWSINTLAWYRQAPGKQRDLVARISSGGSTYYADSVKGRFTISRDNSKNTLYLQMNSLRAEDTAVYYCYAQSTWYPPSWGQGTLVTVSS
As for B1, the binding result is on record as “binds”.
